The values below come from PubChem BioAssay AID2685 (National Center for Advancing Translational Sciences (NCATS), 2010).

A short description of this experiment: qHTS Assay for Lipid Storage Modulators in Drosophila S3 Cells.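 For cell number change: cells counted by Cell Tracker Red CMTPX staining in the red channel.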 The following applies: BODIPY lipid droplet fluorescence, 18-24 h; for cell number change: measured here: cell count max response, cells fed with added oleic acid. The procedure, abridged: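 Drosophila S3 cells got compounds at several concentrations plus oleic acid (400 uM solution). Laser-scanning cytometry with 488 nm excitation read lipid droplets at 500-530 nm and cells at 575-640 nm. Percent activity was relative to 20 uM Triacsin C.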

Where [1] appears, read: measured here: cell number channel AC50, cells fed with added oleic acid.
[2] abbreviates: measured here: lipid fluorescence (Fed channel) AC50, cells fed with added oleic acid.

Molecules are shown by their SMILES. This is one part of the list. Further columns of the screen follow, without active or inactive calls. The list favours compounds with an active or inconclusive main result. Words in brackets tell the shape of the fitted curve; partial curves, single points and poor fits give uncertain potencies.

Take `CCOC(=O)c1c(NC(=O)Cn2nnc(-c3ccc(Cl)cc3)n2)sc(CC)c1C`: the AC50 under setting [1] is 0.164 µM [rising, full curve].

On to `CCOC(=O)[C@H]1[C@H]2COc3ccc(C)cc3[C@@H]2N2C(=O)c3cc(OC)c(OC)cc3NC(=O)[C@@]12C`, for which the cell number change was -24.2%. In addition, the AC50 under setting [2] is 20.6 µM [rising, partial curve, poor fit].

`O=C(Nc1ccccc1C(=O)NCCCN1CCOCC1)c1ccc(F)cc1`: the cell number change was -3.67%. In addition, the AC50 under setting [2] is 0.092 µM [rising, full curve, poor fit].

For `COc1ccc(NC(=S)N2CCN(C/C=C/c3ccccc3)CC2)c(OC)c1`, the cell number change was found to be 5.42%. Further, the AC50 under setting [2] was 3.26 µM [rising, full curve].

Turning to `COc1ccc(Cn2c(=O)c3cccnc3n(Cc3ccc([N+](=O)[O-])cc3)c2=O)cc1`, the cell number change was found to be 32.5%. Moreover, the AC50 under setting [1] was 32.6 µM [rising, single point].

On to `O=C(CCN=C1NS(=O)(=O)c2ccccc21)OCc1nnc(-c2ccccc2)o1`, for which the cell number change is -50%. In addition, under setting [1], the AC50 was 29.1 µM [falling, single point].

For the compound `O=C(COC(=O)c1ccc(S(=O)(=O)NCc2ccco2)cc1)Nc1ccc(OC(F)F)cc1`, the cell number change turned out to be 42.8%. Under setting [1], the concentration at half-maximal activity (AC50) is 32.6 µM [rising, single point]. Also, the AC50 under setting [2] was 2.91 µM [falling, partial curve].

In the case of `CCOCC(=O)Nc1sc2c(c1C(=O)OCC)CCCC2`, the cell number change was -45.6%. For the same compound, the AC50 under setting [1] is 29.1 µM [falling, single point]. Moreover, the AC50 under setting [2] was 29.1 µM [falling, single point].

Regarding `Cc1nc2[nH]c(=O)c3c(n2n1)NC1=C(C(=O)CC(C)(C)C1)C3c1ccc(F)cc1` (stereo unspecified), the cell number change worked out at 41%. Also, under setting [1], the AC50 was 16.4 µM [rising, single point]. The AC50 under setting [2] was 6.51 µM [rising, partial curve, poor fit].

On to `COc1ccc(C2C(=O)c3ccccc3C2=O)cc1`, for which the AC50 under setting [1] is 6.51 µM [rising, single point] and the AC50 under setting [2] was 3.26 µM [rising, full curve, poor fit].

Consider `O=c1cc(-c2ccccc2Cl)oc2cccc(O)c12`, for which the cell number change came out at 23.6%. Further, the AC50 under setting [2] was 1.64 µM [rising, partial curve, poor fit].

In the case of `CC(C)CCC1(CCNC(=O)c2cccs2)CCOC(C)(C)C1` (stereo unspecified), the cell number change is -44.8%. For the same compound, the AC50 under setting [1] is 0.00651 µM [falling, full curve, poor fit]. For the same compound, the AC50 under setting [2] is 0.116 µM [falling, full curve, poor fit].

`CCOC(=O)c1c(C)oc2cc(Br)c(OC(C)C(=O)OCC)cc12` (stereo unspecified): the cell number change was -19.5%. Also, the AC50 under setting [2] is 0.103 µM [rising, full curve, poor fit].

With `O=C1C=C(NC2CCCC2)CC(c2ccccc2)C1` (stereo unspecified), the AC50 under setting [2] was 5.8 µM [falling, full curve, poor fit].

With `CNC(=O)c1sc(Nc2ccc(OCc3ccccc3)cc2)nc1C`, the cell number change turned out to be 13.4%.

For `CCOC(=O)Cc1cc(=O)n2[nH]c(C)c(C#N)c2n1`, the cell number change was -33.7%. Moreover, under setting [1], the concentration at half-maximal activity (AC50) is 32.6 µM [falling, single point]. Moreover, the AC50 under setting [2] was 16.4 µM [falling, single point].

Take `COc1ccc(N/C=C(\C#N)S(=O)(=O)c2ccc(Cl)cc2)c(OC)c1`: the cell number change amounted to 8.02%. The AC50 under setting [2] is 0.13 µM [rising, full curve, poor fit].

In the case of `O=C1c2ccccc2C(=O)N1C/C=C/CN1C(=O)c2ccccc2C1=O`, the cell number change is -173%.

Take `COCc1cc(C)nc(OCC(=O)N/N=C/c2ccc(O)cc2O)c1C#N`: the cell number change was -0.425%. In addition, the AC50 under setting [1] was 0.58 µM [falling, single point].

In the case of `Nc1c(C(=O)CSc2nncn2-c2ccccc2)c(=O)[nH]c(=O)n1C1CC1`, the cell number change is -4.79%. In addition, the AC50 under setting [1] was 0.00517 µM [falling, full curve, poor fit]. Also, the AC50 under setting [2] was 0.82 µM [rising, single point].

For `Cc1ccc(-c2cc(C(=O)NCc3cnn(C)c3)c3cc(Br)ccc3n2)cc1`, the cell number change was -23.9%. The AC50 under setting [2] is 29.1 µM [falling, single point].

As to `O=C(O)c1ccc(NC(=O)C2C3CCC(O3)C2C(=O)O)cc1` (stereo unspecified), the cell number change is -1.47%.

For the compound `O=C(Nc1ccc(Cc2ccncc2)cc1)c1cc([N+](=O)[O-])ccc1N1CCOCC1`, the cell number change worked out at 22.3%. For the same compound, under setting [2], the concentration at half-maximal activity (AC50) is 4.61 µM [rising, full curve].

Consider `O=C(Nc1ccc2c(c1)ncn2-c1ccccc1)c1ccco1`, for which the AC50 under setting [2] was 5.8 µM [rising, partial curve].

With `[O-][N+]12CCN(CC1)c1ccccc12`, the cell number change is 3.4%. Besides, the AC50 under setting [2] was 0.58 µM [falling, full curve].

In the case of `CCOc1cc(/C=C/c2nc3cc(C)c(C)cc3s2)ccc1OCC(=O)N1CCOCC1`, the cell number change is 5.96%. Further, the AC50 under setting [2] was 0.103 µM [falling, full curve, poor fit].

Consider `CC(C)(C)NC(=O)c1cc(NC(=O)c2cccs2)cc(NC(=O)c2cccs2)c1`, for which the cell number change worked out at 9.01%. Besides, under setting [2], the AC50 is 6.51 µM [falling, single point].

Take `CSc1nc(N)c2c(n1)OC(N)=C(C#N)C2c1cccnc1` (stereo unspecified): the cell number change was found to be 42.4%. Moreover, under setting [1], the AC50 is 18.4 µM [rising, single point].

As to `Cc1cc(NC(=S)NC(=O)C2CC2)ccc1Br`, the cell number change is -48.6%. The AC50 under setting [1] is 20.6 µM [falling, partial curve, poor fit]. Further, under setting [2], the AC50 is 25.9 µM [falling, partial curve].

With `CC(C)(C)OC(=O)[C@H](Cc1ccccc1)NC(=O)c1nc[nH]c1C(=O)N1CCc2ccccc2C1`, the cell number change was determined as 15%. The AC50 under setting [2] is 29.1 µM [falling, single point].

Regarding `CN(C1CCCCC1)S(=O)(=O)c1ccc(=S)[nH]c1`, the cell number change stood at 3.89%. Besides, under setting [2], the AC50 was 29.1 µM [falling, single point].

As for `COc1cc(OC)cc(C(=O)Nc2ccccc2C(=O)NCc2cccnc2)c1`, the cell number change is -19%. In addition, the AC50 under setting [2] is 6.51 µM [falling, single point].

As to `C=CCN1C(=O)CS/C1=N\S(=O)(=O)c1ccc(Cl)cc1`, the cell number change is 18.3%. The AC50 under setting [2] was 2.31 µM [rising, partial curve, poor fit].

Regarding `COc1ccc(S(=O)(=O)N(C)CC(=O)NCCN2CCOCC2)cc1`, the cell number change was -17.1%. Under setting [2], the half-maximal activity concentration (AC50) is 0.631 µM [falling, partial curve, poor fit].

For `CCOc1ccccc1NC(=O)CSc1nc2c(c(=O)n(C)c(=O)n2C)n1C`, the cell number change came out at 19.7%. The AC50 under setting [2] was 18.4 µM [falling, single point].

As for `CCOC(=O)C(C)/C(C)=N/NC(N)=S` (stereo unspecified), the cell number change was -0.94%.

In the case of `COc1ccccc1C(=O)NC(=O)Nc1nc(-c2ccccc2)cc(C(F)(F)F)n1`, the cell number change came to 19.3%. Moreover, the concentration at half-maximal activity (AC50) under setting [2] is 4.11 µM [rising, full curve, poor fit].

As to `Cc1ccc(NC(=S)N2CCN(S(C)(=O)=O)CC2)cc1`, the AC50 under setting [2] was 29.1 µM [rising, single point].

Consider `CCCCN(C(=O)c1ccco1)c1nnc(-c2cc(OC)c(OC)c(OC)c2)s1`, for which the cell number change is -13.3%.

Turning to `CCN(CC(=O)Nc1ccc2c(c1)OCCO2)C(=O)CCOc1ccccc1`, the cell number change is 5.18%.

As to `CCc1ccccc1OCC(=O)Nc1cc(S(=O)(=O)N(CC)CC)ccc1N1CCOCC1`, the cell number change was -5.26%. Besides, the AC50 under setting [2] is 11.6 µM [rising, partial curve, poor fit].

Consider `CCN(CC(=O)Nc1c(F)cccc1F)C(=O)c1ccc(N2C(=O)c3ccccc3C2=O)cc1`, for which the cell number change is -80.3%. Also, the AC50 under setting [1] is 29.1 µM [falling, single point]. The AC50 under setting [2] was 5.8 µM [rising, partial curve].

Turning to `Cc1cc(C)c(C#N)c(SCC(=O)c2ccc(Cl)cc2Cl)n1`, the cell number change is 45.8%. For the same compound, the AC50 under setting [2] is 5.8 µM [rising, single point].

For the compound `O=C(Nc1ccccc1Br)C1CC(=O)N(c2ccc3c(c2)OCCO3)C1` (stereo unspecified), the cell number change is -32.2%. The AC50 under setting [1] was 18.4 µM [falling, partial curve, poor fit]. Under setting [2], the AC50 is 5.8 µM [falling, full curve, poor fit].

On to `Cc1cnn(-c2ccc3nnc(-c4ccc(Br)cc4)n3n2)c1`, for which the cell number change was 28%. Further, the AC50 under setting [2] is 2.31 µM [rising, full curve].

Consider `Cc1ccccc1CSc1nnc(C)c(=O)n1N`, for which the cell number change is -4.62%. Besides, the AC50 under setting [2] was 5.8 µM [rising, single point].

With `Cc1cc(S(=O)(=O)NCc2ccco2)c(C)cc1Cl`, the cell number change amounted to 17.6%. For the same compound, the AC50 under setting [2] is 23.1 µM [rising, single point].

As to `Nc1ccc(S(=O)(=O)Nc2nccc(/C=C/c3ccccc3F)n2)cc1`, the cell number change came out at 31.5%. Moreover, the AC50 under setting [1] is 1.3 µM [rising, full curve]. Moreover, under setting [2], the AC50 is 1.03 µM [rising, full curve].

For the compound `CN(Cc1ccc(F)cc1)Cc1nc(-c2ccccc2)no1`, the cell number change was determined as 4.72%. Further, under setting [2], the AC50 is 13 µM [rising, partial curve].

Regarding `CC(C)(C)NC(=O)NC(=O)COC(=O)CNC(=O)c1cc(Cl)cc([N+](=O)[O-])c1`, the cell number change was -38%. In addition, the AC50 under setting [1] was 5.17 µM [falling, full curve].

Consider `O=C(NNC(=O)C1CCCCC1)c1ccncc1`, for which the cell number change was -5.71%.

In the case of `COc1cccc2[nH]c3c(N4CCCCC4)ncnc3c12`, the cell number change is -30.2%. Further, the AC50 under setting [1] was 0.366 µM [falling, full curve, poor fit]. Moreover, the AC50 under setting [2] is 0.731 µM [falling, full curve, poor fit].

As for `NS(=O)(=O)c1ccc(NC(=S)N2CCN(C(=O)C3CCCO3)CC2)cc1` (stereo unspecified), the cell number change was -11.9%. For the same compound, the AC50 under setting [2] is 9.2 µM [falling, partial curve].

As to `O=C(Nc1ccccc1Cl)OC1CCCCC1`, the cell number change came out at 13.3%.

Take `Cc1ccc(S(=O)(=O)N/N=C(\c2ccccc2)C2CC2)cc1`: the cell number change was 13.4%. Besides, the AC50 under setting [2] is 0.0731 µM [rising, full curve, poor fit].

With `O=C1COc2ccc(S(=O)(=O)Nc3cccc(Cl)c3)cc2N1`, the cell number change is -12.7%. The AC50 under setting [2] is 6.51 µM [rising, single point].

For `Cc1cc([N+](=O)[O-])nn1CC(=O)Nc1cc(F)ccc1F`, the cell number change was determined as 2.64%. Under setting [1], the half-maximal activity concentration (AC50) was 6.51 µM [falling, single point]. Also, the AC50 under setting [2] is 3.26 µM [falling, single point].

Regarding `O=C1Nc2cccnc2Sc2ccccc21`, the cell number change is -9.2%. The AC50 under setting [2] is 1.03 µM [falling, full curve].
